Results deposited as PubChem BioAssay AID1259405 (NCATS, 2018).
Here is a random part of about 50,000 deposited reagents. Of all reagents, about 4,000 (8%) were called active. 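Mouse siRNA library applied to hamster cells; one well for each siRNA.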 The numbers tell different reagents against one gene apart.

Screen: 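Mouse-designed siRNAs used to find CHO productivity engineering targets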 (primary screen)
System: Chinese hamster CHO-K1 ovary cells with stable secreted eGFP expression
Reagent: single siRNA against mouse genes, 0.8 pmol siRNA per well (2 µl of 400 nM stock)
Timing: 3 days
Measurement: 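Percent of the per-plate non-targeting control median for intracellular GFP per well by laser scanning cytometry and for cell viability by ATP luminescence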
Direction: GFP, % of control: higher = more GFP per well, higher productivity; viability (ATP), % of control: higher = more viable cells (more ATP)
Call rule: 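a knock-down is called active if GFP reaches 120% or more of non-targeting control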

After knock-down of Calhm2 (GeneID 72691) #1, the record shows GFP, % of control 85.8; viability (ATP), % of control 92.2; inactive.
Silencing of Calhm2 (GeneID 72691) #2 gave: GFP, % of control 67.2; viability (ATP), % of control 71.9; inactive.
For Calhm2 (GeneID 72691) #3 the deposit lists GFP, % of control 87.4; viability (ATP), % of control 66.5; inactive.
After knock-down of Hmgb1 (GeneID 15289) #1, the record shows GFP, % of control 55.5; viability (ATP), % of control 69.2; inactive.
Knock-down of Hmgb1 (GeneID 15289) #2 came out at: GFP, % of control 114; viability (ATP), % of control 84.2; inactive.
With knock-down of Hmgb1 (GeneID 15289) #3, the record shows GFP, % of control 112; viability (ATP), % of control 83.9; inactive.
Against Fgfr3 (GeneID 14184) the deposit lists GFP, % of control 149; viability (ATP), % of control 97.3; active.
Sgsm1 (GeneID 52850) #1 gave GFP, % of control 102; viability (ATP), % of control 79.8; inactive.
Depletion of Sgsm1 (GeneID 52850) #2 gave: GFP, % of control 73.3; viability (ATP), % of control 82.7; inactive.
Sgsm1 (GeneID 52850) #3 showed GFP, % of control 24.8; viability (ATP), % of control 21.5; inactive.
With knock-down of Mgat4b (GeneID 103534) #1, the record shows GFP, % of control 95.6; viability (ATP), % of control 67.8; inactive.
With knock-down of Mgat4b (GeneID 103534) #2 the results were GFP, % of control 113; viability (ATP), % of control 76; inactive.
Against Mgat4b (GeneID 103534) #3 the deposit lists GFP, % of control 62.4; viability (ATP), % of control 77.6; inactive.
Knock-down of Aldh1l2 (GeneID 216188) #1 resulted in: GFP, % of control 84; viability (ATP), % of control 71.8; inactive.
After knock-down of Aldh1l2 (GeneID 216188) #2 the results were GFP, % of control 73.6; viability (ATP), % of control 62.9; inactive.
Aldh1l2 (GeneID 216188) #3 showed GFP, % of control 79.2; viability (ATP), % of control 81.6; inactive.
With knock-down of Nlrc3 (GeneID 268857) #1, the screen gave GFP, % of control 41.2; viability (ATP), % of control 35.2; inactive.
Against Nlrc3 (GeneID 268857) #2, the values are GFP, % of control 74.8; viability (ATP), % of control 70.7; inactive.
Tmem44 (GeneID 224090) #1 scored GFP, % of control 71.6; viability (ATP), % of control 61.4; inactive.
For Tmem44 (GeneID 224090) #2, the entry reads GFP, % of control 40.4; viability (ATP), % of control 42.8; inactive.
Tmem44 (GeneID 224090) #3 gave GFP, % of control 76.3; viability (ATP), % of control 83.8; inactive.
With knock-down of Lrp6 (GeneID 16974) #1 the results were GFP, % of control 72.6; viability (ATP), % of control 83.5; inactive.
With knock-down of Lrp6 (GeneID 16974) #2, the record shows GFP, % of control 46.2; viability (ATP), % of control 62.4; inactive.
Lrp6 (GeneID 16974) #3 showed GFP, % of control 147; viability (ATP), % of control 62.1; active.
Against Or5j3 (GeneID 259012) #1, the entry reads GFP, % of control 76.3; viability (ATP), % of control 79; inactive.
Or5j3 (GeneID 259012) #2 gave GFP, % of control 71.7; viability (ATP), % of control 81; inactive.
For Or5j3 (GeneID 259012) #3 the deposit lists GFP, % of control 77.2; viability (ATP), % of control 74.8; inactive.
Mapk1 (GeneID 26413) gave GFP, % of control 58.3; viability (ATP), % of control 70.7; inactive.
Depletion of Vmn1r171 (GeneID 81012) #1 gave: GFP, % of control 92.5; viability (ATP), % of control 58.9; inactive.
Against Vmn1r171 (GeneID 81012) #2 the deposit lists GFP, % of control 73.5; viability (ATP), % of control 58.2; inactive.
Against Vmn1r171 (GeneID 81012) #3, the values are GFP, % of control 83.1; viability (ATP), % of control 69.8; inactive.
Knock-down of Nat14 (GeneID 269854) #1 gave: GFP, % of control 136; viability (ATP), % of control 90.2; active.
Nat14 (GeneID 269854) #2 showed GFP, % of control 71.5; viability (ATP), % of control 87.7; inactive.
With knock-down of Hgd (GeneID 15233) #1, the screen gave GFP, % of control 66.7; viability (ATP), % of control 62.5; inactive.
Hgd (GeneID 15233) #2 scored GFP, % of control 81.1; viability (ATP), % of control 55.2; inactive.
With knock-down of Hgd (GeneID 15233) #3, the record shows GFP, % of control 66.7; viability (ATP), % of control 71.2; inactive.
With knock-down of 3110053B16Rik (GeneID 382686) #1, the screen gave GFP, % of control 79.9; viability (ATP), % of control 71.8; inactive.
With knock-down of 3110053B16Rik (GeneID 382686) #2, the screen gave GFP, % of control 77.8; viability (ATP), % of control 72.4; inactive.
3110053B16Rik (GeneID 382686) #3 gave GFP, % of control 118; viability (ATP), % of control 86.5; inactive.
Dram1 (GeneID 71712) #1 showed GFP, % of control 82.4; viability (ATP), % of control 100; inactive.
With knock-down of Dram1 (GeneID 71712) #2, the screen gave GFP, % of control 93.3; viability (ATP), % of control 85.7; inactive.
Dram1 (GeneID 71712) #3 scored GFP, % of control 38.6; viability (ATP), % of control 64.3; inactive.

5 entries from above, set out differently:
| Target gene | reagent | GFP, % of control | viability (ATP), % of control | call |
| --- | --- | --- | --- | --- |
| Nlrc3 (GeneID 268857) | 2 | 74.8 | 70.7 | inactive |
| Tmem44 (GeneID 224090) | 1 | 71.6 | 61.4 | inactive |
| Tmem44 (GeneID 224090) | 2 | 40.4 | 42.8 | inactive |
| Tmem44 (GeneID 224090) | 3 | 76.3 | 83.8 | inactive |
| Lrp6 (GeneID 16974) | 1 | 72.6 | 83.5 | inactive |
